Data source: PubChem BioAssay AID686938 (Drosophila RNAi Screening Center, 2013)
Purpose: 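Fly genes required for calcium entry once internal stores are emptied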 (primary screen). Cell system: Drosophila S2R+ cells. Reagent: long dsRNA against Drosophila genes, about 0.25 µg dsRNA per well, roughly 10,000 cells. Timing: 5 days of knock-down before the calcium assay. Conditions: thapsigargin (SERCA pump blocker) to empty calcium stores; entry signal taken 4 min after adding it. Measured: 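Duplicate raw fluo-4 intensities per well from a plate reader, at rest and four minutes after thapsigargin emptied calcium stores; entry-to-rest ratio filled for only some wells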. Direction: calcium entry signal: higher = stronger calcium signal after store depletion; resting calcium signal: higher = higher resting calcium signal. Units: calcium entry signal in fluorescence units; resting calcium signal in fluorescence units. Active means: 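Hit if the duplicate-averaged plate z-score for entry over resting signal is under −3; wells with weak total dye signal (Fmax z < −2) or more than 5 off-targets removed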. Meaning of the calls: active = strongly reduced calcium entry; inactive = no strong reduction.
The screen tested about 23,000 reagents; below is an unselected part of those that have a named target and a result. Over the whole deposit, 75 (0.33%) were called active. 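Raw plate signals without normalisation; calls rest on plate z-scores that were not deposited; ratio present for only 364 wells.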 Not given: the dose of the treatment.

What did the screen give for Inx7 (Innexin 7) [SID104198576]?
calcium entry signal, replicate 1: 3.04e7; calcium entry signal, replicate 2: 5.14e7; resting calcium signal, replicate 1: 1.61e7; resting calcium signal, replicate 2: 2.34e7; Call: inactive

What did the screen give for Cdk1 (Cyclin-dependent kinase 1) [SID104183296]?
calcium entry signal, replicate 1: 1.59e7; resting calcium signal, replicate 1: 1.10e7; Call: inactive

Which result is listed for CCT3 (Chaperonin containing TCP1 subunit 3) [SID104196394]?
calcium entry signal, replicate 1: 3.12e7; calcium entry signal, replicate 2: 2.21e7; resting calcium signal, replicate 1: 1.64e7; resting calcium signal, replicate 2: 1.16e7; Call: inactive

What did the screen give for sofe [SID104199543]?
calcium entry signal, replicate 1: 2.20e7; calcium entry signal, replicate 2: 3.31e7; resting calcium signal, replicate 1: 1.14e7; resting calcium signal, replicate 2: 1.64e7; Call: inactive

How did the screen score CG34355 [SID104193431]?
calcium entry signal, replicate 1: 3.80e7; calcium entry signal, replicate 2: 6.06e7; resting calcium signal, replicate 1: 1.68e7; resting calcium signal, replicate 2: 3.11e7; Call: inactive

For CG34355 [SID104194312], what was measured?
calcium entry signal, replicate 1: 4.39e7; calcium entry signal, replicate 2: 5.06e7; resting calcium signal, replicate 1: 2.21e7; resting calcium signal, replicate 2: 2.30e7; Call: inactive

With CG34355 [SID104194460], how do the results read?
calcium entry signal, replicate 1: 4.77e7; calcium entry signal, replicate 2: 6.07e7; resting calcium signal, replicate 1: 2.23e7; resting calcium signal, replicate 2: 2.61e7; Call: inactive

For CG34355 [SID104201368], how do the results read?
calcium entry signal, replicate 1: 3.83e7; calcium entry signal, replicate 2: 3.66e7; resting calcium signal, replicate 1: 2.10e7; resting calcium signal, replicate 2: 1.66e7; Call: inactive

What did the screen give for GABA-B-R2 (metabotropic GABA-B receptor subtype 2) [SID104193926]?
calcium entry signal, replicate 1: 2.55e7; calcium entry signal, replicate 2: 3.91e7; resting calcium signal, replicate 1: 1.29e7; resting calcium signal, replicate 2: 1.88e7; Call: inactive

For Kal1 (Kallmann syndrome 1) [SID104195775], how do the results read?
calcium entry signal, replicate 1: 3.21e7; calcium entry signal, replicate 2: 3.26e7; resting calcium signal, replicate 1: 1.42e7; resting calcium signal, replicate 2: 1.52e7; Call: inactive

For CG7484 [SID104190645], what was measured?
calcium entry signal, replicate 1: 3.92e7; calcium entry signal, replicate 2: 5.28e7; resting calcium signal, replicate 1: 1.91e7; resting calcium signal, replicate 2: 2.18e7; Call: inactive

For beta4GalNAcTB (beta1,4-N-acetylgalactosaminyltransferase B) [SID104194661], what was measured?
calcium entry signal, replicate 1: 3.65e7; calcium entry signal, replicate 2: 6.35e7; resting calcium signal, replicate 1: 2.01e7; resting calcium signal, replicate 2: 2.60e7; Call: inactive
